Test results taken from PubChem BioAssay AID504467 (National Center for Advancing Translational Sciences (NCATS), 2011).
The campaign covered roughly 330,000 compounds. About 7,700 (2.3%) were called active. The inconclusive results got no clear call from the source; some entries with a clear call stand among them for comparison. Calls follow the shape of the dose curve; as a rule, active = well fitted inhibition curve with a large enough effect; inconclusive = small, poorly fitted or top-dose-only effect, or effect the other way; inactive = flat fitted curve, though single readings scatter. Where the call is inconclusive, the potency comes from a doubtful curve fit.

Test: qHTS screen for small molecules that inhibit ELG1-dependent DNA repair in human embryonic kidney (HEK293T) cells expressing luciferase-tagged ELG1; also: nearly all actives have a fitted effect of over 55% in size
Conditions: HEK293T ELG1-luciferase reporter, luminescence, 16 h, DNA damage induced by 5-fluorouridine; activity change, negative = inhibition: at 46.1 µM (top of the series)
Outline: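 Reporter activity after DNA damage by 5-fluorouridine is monitored. Compound-treated cells incubate 16 hr at 37 °C, then ONE-Glo is added for 30 min before luminescence reading.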
% is scaled to controls: 0 for no effect and ±100 for the full control effect; potency is read from the fitted curve at half-maximal effect.

Compound	Potency	activity change, negative = inhibition
O=C(NNC(=O)c1ccc(Br)s1)c1ccc(F)c(S(=O)(=O)N2CCOCC2)c1	inconclusive: 16.4 µM [inhibitor, single point]	
CC1=NN(C(=O)c2c(Br)cnn2C)C(O)(C(F)(F)F)C1 (centres undefined)	inactive	
Cc1ccc(C(=O)Nc2ccc(S(=O)(=O)NCc3ccco3)cc2)cc1	inconclusive: 20.6 µM [activator, partial curve]	
CC(C)NC(=O)c1ccccc1NC(=O)/C=C/c1cccc([N+](=O)[O-])c1	inconclusive: 23.1 µM [inhibitor, partial curve]	
O=C(Cc1ccc2c(c1)CCCC2)Nc1ccc2ccccc2c1	inconclusive: 20.6 µM [activator, partial curve]	
O=C(Nc1cccc(S(=O)(=O)N2CCCC2)c1)c1ccc(Cl)nc1	active: 9.2 µM	
O=C(C[C@H]1C[C@H](C(=O)N2CCOCC2)[C@@]2(CCC3CCCC3)c3[nH]c4ccc(Cl)cc4c3CCN2C1=O)NCC12CC3CC(CC(C3)C1)C2	inconclusive: 20.6 µM [inhibitor, single point]	
COc1ccc(NC(=O)C2CCCN(S(=O)(=O)c3c(C)[nH]c(=O)[nH]c3=O)C2)cc1Cl (centres undefined)	inactive	
O=C(Nc1ccc(NC(=O)c2ccccc2F)cn1)c1ccco1	inconclusive: 1.3 µM [activator, partial curve]	
O=C(Nc1ccc(F)c(Cl)c1)NC1CC1	inactive	
Cc1c(CCC(=O)NCCCCCC(=O)O)c(=O)oc2c(C)c3oc4c(c3cc12)CCCC4	inactive	
O=C(NCCC1=CCCCC1)C1CCN(S(=O)(=O)c2cccc(C(F)(F)F)c2)CC1	inactive	
CC(=O)c1c(C)oc2ccc(NS(=O)(=O)c3cccs3)cc12	inconclusive: 29.1 µM [inhibitor, partial curve, poor fit]	
CCCc1nc2ccccc2c(C(=O)OCC(=O)Nc2cccc(S(=O)(=O)N3CCOCC3)c2)c1CC	active: 25.9 µM	
Cc1ccc(C(=O)N2CCN3C(=O)c4ccccc4C23c2ccc(Cl)cc2)cc1 (centres undefined)	inactive	
Cc1nn(Cc2c(Cl)cccc2Cl)c(C)c1NC(=O)c1cnn2c(C(F)F)cc(-c3ccccc3)nc12	inconclusive: 2.59 µM [inhibitor, full curve]	
CCOc1ccc(N=C2SC(C(=O)Nc3ccccc3C#N)C(N)=C2C(=O)Nc2ccc(Cl)cc2)cc1 (centres undefined)	inactive	
CCOC(=O)c1c(C)[nH]c(C(=O)COC(=O)c2oc3ccccc3c2C)c1C	inactive	
O=C(COc1ccccc1/C=C\c1nc(O)c([N+](=O)[O-])c(=O)[nH]1)Nc1ccccc1	inconclusive: 9.2 µM [activator, partial curve, poor fit]	
Cc1cc2nc(-c3ccc(SCC(=O)Nc4ccc(S(=O)(=O)NC5CC5)cc4)nc3)[nH]c2cc1C	inconclusive: 2.31 µM [activator, partial curve]	
CC(C)(C)c1ccc(NC(=O)c2ccsc2)cc1	inconclusive: 0.92 µM [activator, partial curve]	
Cc1cc(C)nc(SCc2nc3ccccc3n2C)n1	inconclusive: 18.4 µM [activator, partial curve]	
Nc1ncccc1C(=O)OCC(=O)N1CCN(S(=O)(=O)c2ccc(Cl)cc2)CC1	active: 9.2 µM	

Compound	Potency	activity change, negative = inhibition
Cc1cc(C(=O)Nc2nnc(-c3ccccc3)s2)no1	inconclusive: 25.9 µM [activator, single point]	
CCOc1ccc(C(C(=O)NCC2CCCO2)N(C(=O)c2snc(C(N)=O)c2N)c2cccc(F)c2)cc1 (centres undefined)	inconclusive: 16.4 µM [inhibitor, partial curve]	
COc1ccccc1NCCC(=O)OCC(=O)NC1CC1	inconclusive: 20.6 µM [activator, partial curve]	
Cc1ccc(Oc2ccc(OCC(=O)NC(C)C(=O)O)cc2)cc1 (centres undefined)	inactive	
CCC1C(=O)N(C)CCc2ccccc21 (centres undefined)	inconclusive: 29.1 µM [activator, single point]	
Cc1ccccc1/C(N)=N/OC(=O)c1ccc(F)cc1	inconclusive: 16.4 µM [activator, partial curve]	
O=C(NC12CC3CC(CC(C3)C1)C2)c1ccccc1O	inconclusive: 8.2 µM [inhibitor, single point]	
Cc1cc(-c2nc(-c3ccncc3)no2)ccc1[N+](=O)[O-]	inconclusive: 18.3 µM [activator, partial curve]	
Cc1ccc(C(=O)NC2CCC(C)CC2)o1 (centres undefined)	inconclusive: 20.6 µM [activator, partial curve]	
CC(=O)Oc1ccc(-c2nc3ccccc3c(=O)o2)cc1	inactive	
CCN(Cc1ccccc1)C(=O)c1ccc(CS(=O)c2ccccc2C)o1 (centres undefined)	inactive	
CCOC(=O)c1c(NC(=O)c2ccccc2N(C)S(=O)(=O)c2ccccc2)sc2c1CCCC2	inconclusive: 2.06 µM [inhibitor, partial curve]	
COc1ccc(-n2nnnc2SCC(=O)Nc2nnc(C)s2)cc1	inactive	
CC1CCN(C(=O)c2cc(N3C(=O)C4C5CCC(C5)C4C3=O)ccc2Cl)CC1 (centres undefined)	inactive	
CCN(Cc1ccccc1)S(=O)(=O)c1cc(C(=O)NCC2CCCCC2)ccc1OC	active: 23.1 µM	
Cc1noc(C)c1CSc1nc2ccccc2c(=O)n1-c1ccc(F)cc1F	inconclusive: 23.1 µM [inhibitor, single point]	
O=C(Nc1cccnc1)c1ccc(N2CCOCC2)c([N+](=O)[O-])c1	inactive	
S=C(NCc1ccncc1)Nc1ccc(Br)cc1	inconclusive: 32.6 µM [inhibitor, partial curve, poor fit]	
O=C(NCc1ccco1)c1cccc(NC(=O)c2ccco2)c1	inactive	
Cc1nc(-c2ccccc2)sc1C1(C)CC(c2cccc([N+](=O)[O-])c2)=NO1 (centres undefined)	inconclusive: 25.9 µM [activator, single point]	
Cc1cc(=O)n2[nH]c(-c3ccc(C(C)(C)C)cc3)cc2n1		inconclusive: 36.5% [activator]
N#C/C=C\Oc1ccc(Cl)cc1N	inconclusive: 18.4 µM [inhibitor, single point]	
Cc1ccccc1NC(=O)Cc1nnc(NC(=O)Nc2ccccc2F)s1	inconclusive: 29.1 µM [activator, single point]	

Part of the list above, as labelled records.
S=C(NCc1ccncc1)Nc1ccc(Br)cc1
  Potency: inconclusive: 32.6 µM [inhibitor, partial curve, poor fit]
O=C(NCc1ccco1)c1cccc(NC(=O)c2ccco2)c1
  Potency: inactive
Cc1nc(-c2ccccc2)sc1C1(C)CC(c2cccc([N+](=O)[O-])c2)=NO1 (centres undefined)
  Potency: inconclusive: 25.9 µM [activator, single point]

Further results follow:

Compound	Potency	activity change, negative = inhibition
OC(CNc1nc2ccccc2s1)c1ccccc1 (centres undefined)	inconclusive: 16.4 µM [activator, single point]	
CCOC(=O)c1cnc(-n2nc(C)cc2C)nc1Nc1ccc(N(C)C)cc1	active: 14.6 µM	
O=C1C=C(c2cnc3ccccc3c2)C[C@@H](c2ccc3c(c2)OCO3)C1	inconclusive: 18.3 µM [inhibitor, partial curve, poor fit]	
ClC1(Cl)CC1Cn1c(C2CC2)nc2ccccc21 (centres undefined)	inconclusive: 23.1 µM [inhibitor, partial curve, poor fit]	
CN(Cc1cccc(Cl)c1Cl)C(=O)c1cc(S(=O)(=O)N2CCOCC2)ccc1F	inconclusive: 16.4 µM [inhibitor, partial curve, poor fit]	
COc1ccccc1CNC(=O)CN1C(=O)N(C)C2(CCCCC2)C1=O	inactive	
COc1cc(OC)cc(C(=O)N[C@H](C(=O)NCc2ccco2)C(C)C)c1	inactive	
FC(F)Sc1ccc(-n2c(-c3ccc(Cl)cc3)c[n+]3c2CCC3)cc1	inconclusive: 18.3 µM [inhibitor, partial curve, poor fit]	
CCN(CC)S(=O)(=O)c1cccc(-c2nnc(C(=O)c3ccc(C(F)(F)F)cc3)o2)c1	inconclusive: 25.9 µM [inhibitor, single point]	
Nc1c(Cl)cc(C2=NCCn3c2c2ccccc2[n+]3[O-])cc1Cl	inactive	
COc1ccc2cnn(CCOc3ccccc3)c(=O)c2c1OC	inconclusive: 2.06 µM [activator, full curve]	
COc1ccccc1NS(=O)(=O)c1ccc(Cl)c(NC(=O)c2sc3cc(Cl)ccc3c2Cl)c1	inactive	
CCOC(=O)c1ccccc1NC(=O)COc1cc(=O)n(CC)c2ccccc12	inconclusive: 20.6 µM [inhibitor, single point]	
CC(C)(C)C(=O)N1N=C(c2ccc(NS(C)(=O)=O)cc2)CC1c1cccs1 (centres undefined)	inconclusive: 18.3 µM [inhibitor, single point]	
COc1ccccc1CNS(=O)(=O)c1ccc(-c2cc(C)no2)cc1	inconclusive: 1.03 µM [inhibitor, single point]	
CCCN1CNC(=S)N(c2ccccc2OCC)C1	inactive	
CCCOc1ccc(C(=O)NCCc2ccccc2)cc1	inconclusive: 1.64 µM [activator, full curve]	
Cc1cc(NC(=O)c2cc(-c3ccco3)on2)nn1Cc1ccc(Cl)cc1	inconclusive: 8.91 µM [inhibitor, partial curve, poor fit]	
COc1ccc2oc(=N)c(C(=O)Nc3cccc(C)c3C)cc2c1	inconclusive: 10.3 µM [activator, single point]	
O=C(c1nn(Cc2ccccc2)c(=O)c2ccccc12)N1CCN(C/C=C/c2ccccc2)CC1	inconclusive: 29.1 µM [inhibitor, single point]	
Cc1cc(C(=O)CSc2n[nH]c(N)n2)c(C)n1-c1ccc(F)cc1	inconclusive: 20.6 µM [activator, partial curve]	
O=C(N/N=C/c1ccc([N+](=O)[O-])o1)c1cccc(S(=O)(=O)N2CCOCC2)c1	inconclusive: 29.1 µM [inhibitor, single point]	
CSCCC(C)N1CCC(Oc2ccc(C(=O)N3CCCC3)cc2)CC1 (centres undefined)	inactive	
